The supplement of paper PMC10849652
The list shows a part of the results.

Sequences of proteins named here, by UniProt entry; tags and fusion partners are left off. A change or cut given only in a name is not applied to a line headed by its entry.
UniProt P00167, whole entry, looked up: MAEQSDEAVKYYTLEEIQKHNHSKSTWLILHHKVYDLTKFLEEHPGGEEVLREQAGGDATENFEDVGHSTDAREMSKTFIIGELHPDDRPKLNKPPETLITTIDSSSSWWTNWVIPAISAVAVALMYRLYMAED
UniProt P50461: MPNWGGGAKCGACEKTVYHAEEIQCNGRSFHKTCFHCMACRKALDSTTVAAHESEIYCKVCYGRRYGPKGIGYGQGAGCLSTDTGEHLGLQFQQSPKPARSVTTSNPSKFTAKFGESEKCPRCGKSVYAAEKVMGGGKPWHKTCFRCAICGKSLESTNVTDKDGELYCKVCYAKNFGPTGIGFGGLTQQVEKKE
UniProt Q8NA75: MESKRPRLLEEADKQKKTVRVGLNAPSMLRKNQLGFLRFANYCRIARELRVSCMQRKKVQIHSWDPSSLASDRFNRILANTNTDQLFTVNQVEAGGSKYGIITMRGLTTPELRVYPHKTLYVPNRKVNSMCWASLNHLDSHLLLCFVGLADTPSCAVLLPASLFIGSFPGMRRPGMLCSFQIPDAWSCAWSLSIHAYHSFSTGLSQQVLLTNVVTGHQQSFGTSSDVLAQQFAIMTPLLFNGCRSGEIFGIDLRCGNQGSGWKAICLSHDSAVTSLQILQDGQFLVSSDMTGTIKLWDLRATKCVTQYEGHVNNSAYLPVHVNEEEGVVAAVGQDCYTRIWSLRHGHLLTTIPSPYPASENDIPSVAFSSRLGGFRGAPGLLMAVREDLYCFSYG
UniProt Q8WUE5: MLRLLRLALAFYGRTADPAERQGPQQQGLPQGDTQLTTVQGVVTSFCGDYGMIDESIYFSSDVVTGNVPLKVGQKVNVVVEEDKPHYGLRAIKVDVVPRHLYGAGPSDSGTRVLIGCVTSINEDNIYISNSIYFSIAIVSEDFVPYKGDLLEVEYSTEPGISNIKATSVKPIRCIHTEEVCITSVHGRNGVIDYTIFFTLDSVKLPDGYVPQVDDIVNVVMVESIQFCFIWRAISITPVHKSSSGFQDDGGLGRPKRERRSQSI
UniProt Q9NXE8: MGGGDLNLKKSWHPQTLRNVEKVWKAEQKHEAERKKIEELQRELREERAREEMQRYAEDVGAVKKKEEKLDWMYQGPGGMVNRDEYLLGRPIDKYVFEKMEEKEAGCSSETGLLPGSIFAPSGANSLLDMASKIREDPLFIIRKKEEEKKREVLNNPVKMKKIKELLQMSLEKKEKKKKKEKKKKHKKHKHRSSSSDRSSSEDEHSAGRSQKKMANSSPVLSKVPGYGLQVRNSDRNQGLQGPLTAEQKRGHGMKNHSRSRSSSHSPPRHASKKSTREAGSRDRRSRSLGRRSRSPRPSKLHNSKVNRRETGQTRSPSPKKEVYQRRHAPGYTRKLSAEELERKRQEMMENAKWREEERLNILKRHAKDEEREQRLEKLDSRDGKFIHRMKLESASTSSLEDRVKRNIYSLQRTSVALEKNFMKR
UniProt Q96SQ9: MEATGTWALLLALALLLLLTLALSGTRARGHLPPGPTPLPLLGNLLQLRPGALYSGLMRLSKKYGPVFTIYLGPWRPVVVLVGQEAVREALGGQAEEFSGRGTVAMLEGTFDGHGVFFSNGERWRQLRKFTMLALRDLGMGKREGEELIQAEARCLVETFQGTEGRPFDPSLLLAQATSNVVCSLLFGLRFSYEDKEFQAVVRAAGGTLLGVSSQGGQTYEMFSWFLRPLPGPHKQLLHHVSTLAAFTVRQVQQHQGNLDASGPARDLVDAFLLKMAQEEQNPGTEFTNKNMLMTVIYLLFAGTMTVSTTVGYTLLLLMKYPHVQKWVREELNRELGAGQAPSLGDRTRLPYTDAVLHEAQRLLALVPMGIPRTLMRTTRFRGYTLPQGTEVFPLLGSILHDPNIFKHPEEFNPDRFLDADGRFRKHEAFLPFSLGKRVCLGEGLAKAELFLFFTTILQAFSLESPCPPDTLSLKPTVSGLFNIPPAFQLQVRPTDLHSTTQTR
UniProt Q96GG9: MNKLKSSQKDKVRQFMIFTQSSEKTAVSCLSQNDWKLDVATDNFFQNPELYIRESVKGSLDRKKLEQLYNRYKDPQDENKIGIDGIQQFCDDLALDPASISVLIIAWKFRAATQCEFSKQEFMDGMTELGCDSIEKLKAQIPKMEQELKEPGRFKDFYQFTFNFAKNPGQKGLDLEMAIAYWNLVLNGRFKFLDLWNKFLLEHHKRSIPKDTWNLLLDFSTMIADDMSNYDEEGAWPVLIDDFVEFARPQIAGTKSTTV
UniProt Q14203, whole entry, looked up: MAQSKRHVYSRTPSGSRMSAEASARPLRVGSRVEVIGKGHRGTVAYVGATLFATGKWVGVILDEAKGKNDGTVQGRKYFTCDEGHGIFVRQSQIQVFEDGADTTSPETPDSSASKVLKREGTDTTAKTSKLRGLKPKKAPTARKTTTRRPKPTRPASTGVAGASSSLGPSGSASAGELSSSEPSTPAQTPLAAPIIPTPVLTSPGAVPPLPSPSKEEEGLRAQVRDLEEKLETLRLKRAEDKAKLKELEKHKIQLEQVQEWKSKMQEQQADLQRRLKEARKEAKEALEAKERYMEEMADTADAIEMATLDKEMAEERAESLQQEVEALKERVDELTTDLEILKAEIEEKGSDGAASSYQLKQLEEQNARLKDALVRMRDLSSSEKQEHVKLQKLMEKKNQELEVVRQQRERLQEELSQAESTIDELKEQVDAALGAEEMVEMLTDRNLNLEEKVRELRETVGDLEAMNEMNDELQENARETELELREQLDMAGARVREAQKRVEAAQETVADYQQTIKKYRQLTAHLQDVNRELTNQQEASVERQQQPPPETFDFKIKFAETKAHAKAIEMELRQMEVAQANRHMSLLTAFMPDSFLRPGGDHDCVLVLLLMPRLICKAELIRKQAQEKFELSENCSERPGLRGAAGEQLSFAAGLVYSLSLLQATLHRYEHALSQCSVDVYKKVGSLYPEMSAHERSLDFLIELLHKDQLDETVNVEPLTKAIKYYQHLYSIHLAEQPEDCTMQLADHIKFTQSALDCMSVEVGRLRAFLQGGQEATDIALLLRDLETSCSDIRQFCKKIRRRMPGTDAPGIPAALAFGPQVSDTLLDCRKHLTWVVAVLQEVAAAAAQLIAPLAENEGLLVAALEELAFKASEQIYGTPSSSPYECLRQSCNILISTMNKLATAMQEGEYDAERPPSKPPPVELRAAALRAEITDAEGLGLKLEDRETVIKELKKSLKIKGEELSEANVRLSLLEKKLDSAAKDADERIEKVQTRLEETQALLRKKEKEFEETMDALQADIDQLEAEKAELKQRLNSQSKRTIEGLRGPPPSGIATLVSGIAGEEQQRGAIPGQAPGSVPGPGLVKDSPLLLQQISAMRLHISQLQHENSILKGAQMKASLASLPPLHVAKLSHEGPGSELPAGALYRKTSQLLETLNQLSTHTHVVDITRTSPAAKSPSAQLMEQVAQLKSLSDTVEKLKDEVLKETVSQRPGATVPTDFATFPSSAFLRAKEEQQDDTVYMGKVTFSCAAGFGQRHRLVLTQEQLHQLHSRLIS
UniProt P25774, whole entry, looked up: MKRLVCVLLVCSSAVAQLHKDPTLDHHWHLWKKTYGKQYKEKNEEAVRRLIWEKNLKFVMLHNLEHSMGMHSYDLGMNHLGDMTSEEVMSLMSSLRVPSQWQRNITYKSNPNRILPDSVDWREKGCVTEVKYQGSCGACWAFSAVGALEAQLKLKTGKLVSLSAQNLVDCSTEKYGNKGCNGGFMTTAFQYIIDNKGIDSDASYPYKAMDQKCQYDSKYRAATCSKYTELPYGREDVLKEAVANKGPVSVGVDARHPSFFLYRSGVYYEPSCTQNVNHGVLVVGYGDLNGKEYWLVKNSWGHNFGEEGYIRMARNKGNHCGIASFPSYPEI
UniProt P13498: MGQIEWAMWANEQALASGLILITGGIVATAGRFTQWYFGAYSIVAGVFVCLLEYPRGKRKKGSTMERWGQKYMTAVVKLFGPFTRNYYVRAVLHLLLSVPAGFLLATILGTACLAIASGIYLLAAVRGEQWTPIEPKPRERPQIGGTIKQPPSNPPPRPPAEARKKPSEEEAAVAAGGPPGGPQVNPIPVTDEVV
UniProt Q8NBI2: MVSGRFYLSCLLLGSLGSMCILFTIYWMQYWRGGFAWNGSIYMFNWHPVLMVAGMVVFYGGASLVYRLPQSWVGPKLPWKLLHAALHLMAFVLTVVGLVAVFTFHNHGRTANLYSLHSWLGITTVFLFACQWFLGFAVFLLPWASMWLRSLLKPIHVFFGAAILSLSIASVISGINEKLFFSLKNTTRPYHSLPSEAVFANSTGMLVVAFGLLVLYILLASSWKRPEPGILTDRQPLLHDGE
UniProt P09668: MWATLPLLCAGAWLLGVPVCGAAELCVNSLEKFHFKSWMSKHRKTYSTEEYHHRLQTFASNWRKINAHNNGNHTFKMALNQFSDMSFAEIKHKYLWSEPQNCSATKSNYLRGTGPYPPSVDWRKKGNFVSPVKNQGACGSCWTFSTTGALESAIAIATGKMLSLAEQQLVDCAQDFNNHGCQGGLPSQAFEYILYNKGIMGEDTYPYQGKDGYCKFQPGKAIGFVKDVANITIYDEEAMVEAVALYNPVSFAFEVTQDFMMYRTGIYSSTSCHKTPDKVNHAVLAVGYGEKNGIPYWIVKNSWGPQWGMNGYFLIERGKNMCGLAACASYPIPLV
UniProt P53634: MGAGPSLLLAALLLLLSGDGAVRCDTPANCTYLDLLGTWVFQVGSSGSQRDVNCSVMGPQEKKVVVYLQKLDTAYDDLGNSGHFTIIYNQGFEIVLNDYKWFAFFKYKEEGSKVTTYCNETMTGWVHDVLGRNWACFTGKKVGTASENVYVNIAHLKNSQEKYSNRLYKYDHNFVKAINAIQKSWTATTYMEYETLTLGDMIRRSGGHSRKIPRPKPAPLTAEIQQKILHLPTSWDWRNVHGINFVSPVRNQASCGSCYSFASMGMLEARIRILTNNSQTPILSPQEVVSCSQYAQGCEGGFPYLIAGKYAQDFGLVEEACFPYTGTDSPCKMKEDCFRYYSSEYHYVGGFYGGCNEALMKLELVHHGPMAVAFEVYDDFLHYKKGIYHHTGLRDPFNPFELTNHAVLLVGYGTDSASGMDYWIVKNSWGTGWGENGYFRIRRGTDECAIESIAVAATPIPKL
UniProt Q9NXF7, whole entry, looked up: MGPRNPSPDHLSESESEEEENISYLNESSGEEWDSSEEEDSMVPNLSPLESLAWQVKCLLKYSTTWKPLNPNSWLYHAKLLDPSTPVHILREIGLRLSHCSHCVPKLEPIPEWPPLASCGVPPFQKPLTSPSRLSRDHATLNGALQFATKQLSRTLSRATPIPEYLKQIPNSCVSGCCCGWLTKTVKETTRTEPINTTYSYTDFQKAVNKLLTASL
UniProt P33240: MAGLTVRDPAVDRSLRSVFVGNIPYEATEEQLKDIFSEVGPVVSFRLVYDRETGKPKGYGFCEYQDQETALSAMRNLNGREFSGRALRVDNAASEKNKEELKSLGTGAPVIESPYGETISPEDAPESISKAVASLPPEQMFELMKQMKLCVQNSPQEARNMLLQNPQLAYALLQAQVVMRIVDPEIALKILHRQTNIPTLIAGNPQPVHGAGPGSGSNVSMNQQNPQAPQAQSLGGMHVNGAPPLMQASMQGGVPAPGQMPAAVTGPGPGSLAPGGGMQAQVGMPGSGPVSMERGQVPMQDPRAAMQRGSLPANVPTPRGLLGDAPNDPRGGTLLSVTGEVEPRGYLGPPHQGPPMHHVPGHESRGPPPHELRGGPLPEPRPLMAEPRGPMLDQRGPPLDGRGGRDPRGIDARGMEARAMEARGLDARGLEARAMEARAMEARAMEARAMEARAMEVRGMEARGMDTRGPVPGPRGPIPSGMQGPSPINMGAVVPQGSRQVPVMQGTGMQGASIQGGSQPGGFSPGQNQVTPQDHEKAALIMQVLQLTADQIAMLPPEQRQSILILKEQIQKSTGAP
UniProt P98082: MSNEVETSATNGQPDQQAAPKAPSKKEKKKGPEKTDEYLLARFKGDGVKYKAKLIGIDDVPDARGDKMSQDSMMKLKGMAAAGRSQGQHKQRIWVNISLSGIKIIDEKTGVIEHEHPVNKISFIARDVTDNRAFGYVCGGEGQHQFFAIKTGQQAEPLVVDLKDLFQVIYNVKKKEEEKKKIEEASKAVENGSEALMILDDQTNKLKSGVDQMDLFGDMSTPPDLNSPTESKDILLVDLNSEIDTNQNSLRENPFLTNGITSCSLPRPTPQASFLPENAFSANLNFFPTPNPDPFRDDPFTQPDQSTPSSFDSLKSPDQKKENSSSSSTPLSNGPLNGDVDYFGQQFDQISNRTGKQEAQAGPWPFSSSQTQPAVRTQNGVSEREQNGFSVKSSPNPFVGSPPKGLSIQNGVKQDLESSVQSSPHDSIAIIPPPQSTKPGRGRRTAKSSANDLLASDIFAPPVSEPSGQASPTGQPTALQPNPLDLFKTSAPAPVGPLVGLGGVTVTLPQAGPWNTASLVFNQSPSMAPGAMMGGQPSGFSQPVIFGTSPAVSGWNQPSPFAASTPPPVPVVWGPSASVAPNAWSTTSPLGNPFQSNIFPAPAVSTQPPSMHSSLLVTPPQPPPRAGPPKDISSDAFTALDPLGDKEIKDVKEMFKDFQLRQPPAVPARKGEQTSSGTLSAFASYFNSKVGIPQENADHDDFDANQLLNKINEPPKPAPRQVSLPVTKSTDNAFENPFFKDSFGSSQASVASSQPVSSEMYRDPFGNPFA

compound: CCn1c(C(=O)N(C2CC2)C2CC2)cc2c3c(ncn3C)c(Nc3cc(C)n(C)n3)nc21; assay: log2 fold change, soluble protein after heating vs DMSO (PISA); higher = thermal stabilisation; K562 cells, 10 uM, 30 min; active = over 0.2 and 3.5 SD of the protein, either way, in both replicates (recomputed)
Outline: (§1)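 Quantification of soluble protein used TMTpro 16plex LC-MS/MS, with channel sums equalised. Samples were the supernatant after 21,000xg for 90 min of pooled aliquots from K562 cells (2×10^6 cells/mL) treated with 10 μM compound for 30 min, heated for 3 min over 48°C-58°C, and extracted in PBS with 0.5% NP-40 at 4°C. Values, from duplicates, describe thermal stability against control samples on a log2 fold-change scale.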

log2 fold change, inactive:
DCTN5 (UniProt Q9BTE1) -0.048
CYSTM1 (UniProt Q9H1C7) 0.118
CYB5A (UniProt P00167) -0.111
CSRP3 (UniProt P50461) -0.003
DCAF4L2 (UniProt Q8NA75) 0.017
CTR9 (UniProt Q6PD62) -0.019
CT55 (UniProt Q8WUE5) -0.066
CTNND1 (UniProt O60716) -0.044
CWC25 (UniProt Q9NXE8) 0.032
CYP2S1 isoform 2 (UniProt Q96SQ9) 0.094

compound: CCn1cc(-c2ccnc3[nH]c(-c4cccc(CN(C)C)c4)cc23)c(-c2ccc(NC(=O)N(C)C)cc2)n1; assay: as above
Outline: as §1

log2 fold change, inactive:
DCTN5 (UniProt Q9BTE1) -0.082
CTU1 (UniProt Q7Z7A3) -0.057
DCAF4 (UniProt Q8WV16) 0.147
CYB5A (UniProt P00167) 0.065
DCUN1D1 (UniProt Q96GG9) -0.061
CYP46A1 (UniProt Q9Y6A2) 0.111
DCAF6 isoform 3 (UniProt Q58WW2) -0.03
CSRP3 (UniProt P50461) 0.132
DCAF4L2 (UniProt Q8NA75) -0.018
CTR9 (UniProt Q6PD62) -0.05
DBNL isoform 3 (UniProt Q9UJU6) 0.007
CTSZ (UniProt Q9UBR2) 0
DCTN1 isoform 4 (UniProt Q14203) -0.024
CTSS (UniProt P25774) 0.126
CYBA (UniProt P13498) 0.074
CT55 (UniProt Q8WUE5) 0.072
DCAF13 (UniProt Q9NV06) 0.132
CYB561A3 isoform 2 (UniProt Q8NBI2) -0.241
DBT (UniProt P11182) -0.001
CWF19L2 (UniProt Q2TBE0) 0.094
DBN1 isoform 3 (UniProt Q16643) 0.087
CTSH (UniProt P09668) 0.057
CTSC (UniProt P53634) -0.032
DAXX (UniProt Q9UER7) -0.102
CTNND1 (UniProt O60716) 0.176
DCAF16 (UniProt Q9NXF7) -0.205
CSTF2 (UniProt P33240) 0.041
CTSB (UniProt P07858) -0.047
DCTPP1 (UniProt Q9H773) -0.032
CWC25 (UniProt Q9NXE8) 0.303
CYP2S1 isoform 2 (UniProt Q96SQ9) -0.089
DAB2 (UniProt P98082) 0.022
CYP51A1 (UniProt Q16850) 0.015
CTSA (UniProt P10619) 0.018
CUX1 isoform 3 (UniProt P39880) -0.008
